From publication PMC10163288
The other results are listed elsewhere or left out.

B1: il2ra_site1_2b5i_sap_11_mot_HHH_b1_03295_000000174_0001_24_40_H_._HHH_b2_04752_0001_0000600034_0000001_0_0001 (protein)
chain: SSSDRQELDKIASELVDELAEEFGLDSEQINALVRLATELVWRGVSPEEIEEELEKLAKELSSSS
B2: il2ra_site1_1z92_normal_mot_HHH_b2_05498_af2_000000074_0001_38_52_H_._HHH_b1_06558_0001_0000100006_0000001_0 (protein)
chain: SSSDSEERAHELAEFAIEAYEITGSEFARELVELKIELLQRLGDEELVEELEELLKEAERRSSSS
B3: il2ra_site1_3nfp_sap_22_mot_0eddeacbb14b769e73e254714f31e2f9_0001_af2_000000052_0001_37_51_H_._d4a0d7e14d3257bbacf2cba0c18c7893_0001_1_af2_0001_0000600027_00000 … (protein)
chain: SSSSDAREEAKELLERALRLALEGDKEEVEKLLERIEELAEESNDPKIEKLLRLLERSLRGSSSS
B4: il2ra_site2_2erj_sap_15_mot_HHH_b1_01129_af2_000000281_0001_18_33_H_._36aedc3324f391c701bbcbfdbcae1c8e_0001_0001_0000300008_0000001_0_0001 (protein)
chain: SSSSSLRELYELANRALHALSKGDEELVEELLEEAKKLAEELNSESVKEHLEALERLLRQLSSSS
B5: il2ra_site1_3nfp_normal_mot_9410bc1eedee1757c7b766bec531e3ee_0001_1_000000027_0001_33_48_H_._HHH_b1_05651_af2_0001_0000500031_0000001_1 (protein)
chain: SSSSSDEEEIRRRIEELLRLVAKIPDPEEAREALEEAIELAKEINNEKLLEKLERAAERLSSSSS
B6: il2ra_site1_2b5i_normal_mot_HHH_b2_00318_000000002_0001_42_56_H_._HHH_b2_06122_af2_0001_0000300015_0000001_0 (protein)
chain: SSSSDLAEEVQKAFLEASRLFLKGDQEEARKLLEELLKELEERNDERNFEDVHRFLEWIHRSSSS
B7: il2ra_site1_1z92_sap_7_mot_74bb627b62bb877a56547cee6c7a6e54_0001_000000029_0001_1_13_H_._HHH_b2_07848_0001_0000200030_0000001_1_0001_af2pred_0001_af2pred_swappe … (protein)
chain: SSSSSSEELAKKIVRILVEAARLSEEQQEELEELARELVKRGYSFEEISKILDKLAAELSSSSSS
B8: il2ra_site1_3nfp_sap_13_mot_2bd1b0f3045d084678c76d87b19d0498_0001_af2_000000155_0001_34_49_H_._HHH_b2_06826_af2_0001_0000200007_0000001_0_0001 (protein)
chain: SSSSDEMERLFRLAHEATRLLRNGDPEEAARVLEEALEIAKEVDPMAERLIEWLLRDLERSSSSS
B9: il2ra_site1_3nfp_sap_8_mot_119b7766384adbe86006a62bce89dba1_0001_af2_000000092_0001_18_32_H_._71ef7cdb5dcc7a70b233eb8b1f999326_0001_0001_0000300009_0000001_0_00 … (protein)
chain: SSSSSSEEEVEELLRQAKEAFEKGDLKLAFELIEEALRIAKEAGDEELLRAIERVMRELASSSSS
B10: il2ra_site2_2erj_sap_20_mot_HHH_b1_04360_af2_000000220_0001_40_57_H_._HHH_b1_02776_0001_0000200003_0000001_0_0001 (protein)
chain: SSSSSSSLLEEAQEEIERLLKEGNSEEALRFAYEVAVELLRKDLREAHEFLEEAQKLFSSSSSSS
B11: il2ra_site1_2b5i_sap_8_mot_HHH_b1_08243_000000135_0001_1_19_H_._HHH_b1_06407_0001_0000700034_0000001_0_0001_af2pred_dldesign_0_af2pred (protein)
chain: SSSSDPKAEVERLLEEARRLYEAGRRREAFELLEEAYKLASEANDDELEDKVYAFARELASSSSS
B12: il2ra_site2_3nfp_sap_14_mot_HHH_b2_05823_000000037_0001_43_56_H_._HHH_b2_05358_0001_0000200012_0000001_0_0001 (protein)
chain: SSSSDDRLELTIESAKLLAEELNDDEALERIEQLEEEIEREGDPRLRLELYELALELYERGSSSS
B13: il2ra_site1_2b5i_normal_mot_HHH_b2_04910_000000118_0001_1_19_H_._HHH_b1_05441_0001_0000100005_0000001_0_af2pred_dldesign_0_af2pred (protein)
chain: SSSSDVKKARELFLEANRLRQAGDYAGAEALLEKAKELAEAAKANLLVKIIENALADLRALSSSS
B14: il2ra_site1_1z92_normal_mot_b1fbee8209167eaadba3689d49187f1a_0001_1_af2_000000019_0001_16_31_H_._2432f4ad5732428c6a29b72b57de0898_0001_1_0001_0000100003_0000001 … (protein)
chain: TEMAELLAKILLDPRRREELLEELLEEAKKEGDLEAIRRDLEFAARFFGDPEIEEVVRELYEELK
B15: il2ra_site2_2erj_normal_mot_HHH_b2_05264_af2_000000057_0001_44_57_H_._HHH_b2_07172_0001_0000200008_0000001_0 (protein)
chain: SSSSSDEREVWERVAELLSRAAHVEDEEEAERLLREARELAEELGSPFLERYVEYARRAHSSSSS
B16: il2ra_site1_3nfp_sap_12_mot_HHH_b1_07770_af2_000000151_0001_1_16_H_._HHH_b1_05931_0001_0000200005_0000001_0_0001_af2pred_0001_af2pred_1_swapped (protein)
chain: SSSSSELEEIIREAEELAKEAGSKVAERLIRLLAERFEKTGDPRAVELIEEAAEALKRFLKSSSS
B17: il2ra_site2_2erj_sap_19_mot_HHH_b1_00821_000000158_0001_1_20_H_._HHH_b1_01338_0001_0000700017_0000001_0_0001 (protein)
chain: SSSSSELEERIRELLEELEEVVKEGDFARAYELALEIYHLIAKLGDEELARELSELIKRMQSSSS
B18: il2ra_site2_2erj_normal_mot_HHH_b1_04373_af2_000000118_0001_18_33_H_._HHH_b2_05199_0001_0000200024_0000001_0 (protein)
chain: SSSSSEELRRLYELAVILLRLVEEGDEEEFERVLEEAQKIAEERQSDSAEEFLEILEKLLSSSSS
B19: il2ra_site1_3nfp_sap_18_mot_HHH_b1_01335_af2_000000105_0001_39_53_H_._966a9f62293634969225d85b517b1661_0001_1_0001_0001000027_0000001_0_0001 (protein)
chain: SSSSDVFKRAQRLSREILRLHHEGDREEARRLLEELQEYAEEEGDPVLEYFVEKLEEHIDSSSSS
B20: il2ra_site2_3nfp_sap_22_mot_HHH_b1_01480_000000265_0001_40_57_H_._HHH_b1_04954_0001_0000100002_0000001_0_0001 (protein)
chain: SSSSDVEEQVEELLEEFRKALEEGDEDLLRVLFVRIMRLAMRTNDPKISEISHEVFQLLESSSSS
B21: il2ra_site1_2b5i_sap_16_mot_HHH_b1_01419_af2_000000080_0001_42_53_H_._HHH_b1_05266_af2_0001_0000100001_0000001_1_0001_af2pred_dldesign_0_af2pred (protein)
chain: SSSSSNQDEVYRLYKEALRLYKEGKREEAKKVLEEALKLAEKNKDEVAVKELKELLKRLESSSSS
B22: il2ra_site1_3nfp_sap_15_mot_HHH_b1_06663_af2_000000256_0001_40_55_H_._HHH_b2_00970_af2_0001_0000100005_0000001_0_0001_af2pred_0001_af2pred_1_swapped (protein)
chain: SSSSSEEAKEFDRLLREASKALEEGDEELVKELLKELEEIAEKRNSPIAKRLVKLLKEQLSSSSS
B23: il2ra_site1_1z92_normal_mot_HHH_b1_08467_af2_000000139_0001_42_58_H_._HHH_b2_05518_af2_0001_0000200008_0000001_0 (protein)
chain: SSSSDEEEEELDELAQELLELMKEGDKEEAERLARELLKLAKELNDENLFREVERTLKFLSSSSS
B24: il2ra_site1_2b5i_normal_mot_0e5a94e4a5addaac739760efb25f0f5d_0001_000000246_0001_18_32_H_._HHH_b2_07956_af2_0001_0000100002_0000001_1_af2pred_0001_af2pred (protein)
chain: SSSSSDEERELLRAIIRAIWILLARGDEELVQRLEELARRAHQENDPELLREAVEIAEEVRSSSS

biological target: il2ra, P01589; assay: yeast display titration

Apparent Kd, inactive:
B1 no binding seen
B2 no binding seen
B3 no binding seen
B4 no binding seen
B5 no binding seen
B6 no binding seen
B7 no binding seen
B8 no binding seen
B9 no binding seen
B10 no binding seen
B11 no binding seen
B12 no binding seen
B13 no binding seen
B14 no binding seen
B15 no binding seen
B16 no binding seen
B17 no binding seen
B18 no binding seen
B19 no binding seen
B20 no binding seen
B21 no binding seen
B22 no binding seen
B23 no binding seen
B24 no binding seen

Nothing new here: an excerpt of the list.
Apparent Kd, inactive:
B8 no binding seen
B9 no binding seen
B10 no binding seen
B11 no binding seen
B12 no binding seen
